The list does not hold the whole screen: it is rich in T/C values a quarter to a half above the control, in often repeated tests (any T/C) and in doses without a T/C. Other doses and runs of a compound stand elsewhere. T/C is the treated group as % of the vehicle group. Some doses have a count of surviving animals in place of a T/C: the source holds a T/C of zero for them, seemingly a mark for toxic or unscored doses. Some doses without a T/C left all or most animals alive at the check, yet need not have been tolerated: survival well below the control is almost never listed, so the zero probably covers shortened survival too. Survivors were counted at the toxicity check, usually on the fifth day, unless a day is given; later deaths do not show. Schedules are NCI's codes, read here as Q, the interval in days (D) or hours (H), X, the number of doses. For survival time, this PubChem deposit counts one and a half times the control or more as active, and values a quarter to a half above the control carry no call in these data; other NCI protocols may use other cut-offs.

This test deals with CD2F1 mice, L1210 leukemia ip, survival T/C. Put plainly: NCI In Vivo Anticancer Drug Screen. Data for tumor model L1210 Leukemia (intraperitoneal) in CD2F1 (CDF1) mice. To be noted: higher T/C = longer survival. As for the experimental part: The antitumor activity of compounds was measured in mice bearing transplantable tumors. Survival or tumor size were measured and the results are expressed as the measurement made in the treated group (T) divided by the measurement made in the vehicle treated control group (C). The tumor model used in this assay is L1210 Leukemia (intraperitoneal) in CD2F1 (CDF1) mice

[1] abbreviates: T/C endpoint: mean survival time, dose: 400.0 mg/kg/injection, schedule: Q04DX003 (ip), vehicle: saline with Tween-80.
The mark [2] stands for this setting: T/C endpoint: mean survival time, dose: 200.0 mg/kg/injection, schedule: Q04DX003 (ip), vehicle: saline with Tween-80.
[3] abbreviates: T/C endpoint: mean survival time, dose: 100.0 mg/kg/injection, schedule: Q04DX003 (ip), vehicle: saline with Tween-80.
[4] abbreviates: T/C endpoint: mean survival time, dose: 50.0 mg/kg/injection, schedule: Q04DX003 (ip), vehicle: saline with Tween-80.

Regarding `Cc1nc(SCc2ccccc2)[nH]c(=O)c1CCO`, under setting [1], the survivor count was 5 of 6.
Take `Cn1cc(C2NC(=O)c3ccccc3N2)c2ccccc21` (stereo not drawn): the T/C (T/C endpoint: median survival time, dose: 200.0 mg/kg/injection, schedule: Q01DX009 (ip), vehicle: Klucel (hydroxypropylcellulose) (HPC)) was 146 % of control. Moreover, the survivor count (T/C endpoint: median survival time, dose: 400.0 mg/kg/injection, schedule: Q01DX009 (ip), vehicle: Klucel (hydroxypropylcellulose) (HPC)) was 3 of 6.
With `CC[S-].CC[S-].[Ni+2]`, the survivor count is, setting by setting: (T/C endpoint: mean survival time, dose: 40.0 mg/kg/injection, schedule: Q01DX001 (ip), vehicle: saline) 2 of 6; (T/C endpoint: mean survival time, dose: 75.0 mg/kg/injection, schedule: Q01DX001 (ip), vehicle: saline) 0 of 6; (T/C endpoint: mean survival time, dose: 80.0 mg/kg/injection, schedule: Q01DX001 (ip), vehicle: saline) 1 of 6; (T/C endpoint: mean survival time, dose: 150.0 mg/kg/injection, schedule: Q01DX001 (ip), vehicle: saline) 0 of 6; (T/C endpoint: mean survival time, dose: 300.0 mg/kg/injection, schedule: Q01DX001 (ip), vehicle: saline) 0 of 6.
Consider `NC(CS/C=C\C(=O)O)C(=O)O` (stereo not drawn), for which the survivor count under setting [2] is recorded as 5 of 6.
In the case of `O=NN(CCCl)C(=O)Nc1cccnc1`, the T/C (T/C endpoint: mean survival time, dose: 12.5 mg/kg/injection, schedule: Q01DX001 (ip), vehicle: water) was 126 % of control. Also, the survivor count by setting is: (T/C endpoint: mean survival time, dose: 25.0 mg/kg/injection, schedule: Q01DX001 (ip), vehicle: water) 5 of 5; (T/C endpoint: mean survival time, dose: 50.0 mg/kg/injection, schedule: Q01DX001 (ip), vehicle: water) 0 of 5; (T/C endpoint: mean survival time, dose: 100.0 mg/kg/injection, schedule: Q01DX001 (ip), vehicle: water) 0 of 5; (T/C endpoint: mean survival time, dose: 200.0 mg/kg/injection, schedule: Q01DX001 (ip), vehicle: water) 0 of 5; (T/C endpoint: mean survival time, dose: 400.0 mg/kg/injection, schedule: Q01DX001 (ip), vehicle: water) 0 of 5.
With `CCN1CCCC(Nc2nc(Nc3ccc(Cl)c(Cl)c3)nc3ccc(Cl)cc23)C1` (stereo not drawn), the survivor count under setting [1] is recorded as 0 of 6.
As for `O=C(O)c1ccccn1`, under “T/C endpoint: mean survival time, dose: 200.0 mg/kg/injection, schedule: Q04HX027 (ip), vehicle: saline”, the survivor count is reported as 0 of 5.
For `O=C(C[n+]1ccccc1/C=N/O)c1ccccc1`, the survivor count is, setting by setting: under setting [3], 5 of 6; under setting [2], 0 of 6.
In the case of `N#Cc1ccccc1C#N`, the survivor count under setting [4] is recorded as 1 of 3 and the survivor count under setting [3] is 0 of 3.
In the case of `c1cc2c(c(NC3=NCCN3)c1)CCCC2`, the survivor count reads like this: under setting [3], 1 of 6; under setting [2], 0 of 6; under setting [1], 0 of 6.
`COc1cccc2c1C(=O)c1c(O)c3c(c(O)c1C2=O)C[C@@](O)(C(=O)CN1CCN(C)CC1)C[C@@H]3OC1CC(N)C(O)C(C)O1` (stereo partly drawn): the survivor count (T/C endpoint: mean survival time, dose: 3.13 mg/kg/injection, schedule: Q04DX003 (ip), vehicle: water) was 6 of 6.
For `CC1OC(C)(C)OC1C(=O)O` (stereo not drawn), the survivor count is, setting by setting: (T/C endpoint: mean survival time, dose: 100.0 mg/kg/injection, schedule: Q01DX009 (ip), vehicle: Klucel (hydroxypropylcellulose) (HPC)) 6 of 6; (T/C endpoint: mean survival time, dose: 200.0 mg/kg/injection, schedule: Q01DX009 (ip), vehicle: Klucel (hydroxypropylcellulose) (HPC)) 6 of 6; (T/C endpoint: mean survival time, dose: 400.0 mg/kg/injection, schedule: Q01DX009 (ip), vehicle: Klucel (hydroxypropylcellulose) (HPC)) 4 of 6.
On to `CC1(C)N=C(N)N=C(N)N1c1ccc(OCCOc2ccc(S(=O)(=O)F)cc2)c(Cl)c1`, for which the T/C under setting [4] is 125 % of control.
With `COc1ccc(NC2=C(C)C(=O)C3=C(C2=O)[C@H](COC(N)=O)[C@]2(OC)[C@@H]4N[C@@H]4CN32)cc1`, the T/C by setting is: (T/C endpoint: mean survival time, dose: 12.0 mg/kg/injection, schedule: Q01DX001 (ip), vehicle: water) 134 % of control; (T/C endpoint: mean survival time, dose: 24.0 mg/kg/injection, schedule: Q01DX001 (ip), vehicle: water) 135 % of control.
For the compound `CSC(=S)NN=C(C)C`, the survivor count (T/C endpoint: mean survival time, dose: 3.13 mg/kg/injection, schedule: Q01DX009 (ip), vehicle: saline sonified) is recorded as 6 of 6; the survivor count (T/C endpoint: mean survival time, dose: 25.0 mg/kg/injection, schedule: Q04DX003 (ip), vehicle: saline with Tween-80) is 2 of 6; the survivor count under setting [3] is listed as 1 of 6; the survivor count under setting [2] is given as 1 of 6; the survivor count under setting [1] is given as 0 of 6.
For `Cc1ccc(S(=O)(=O)SCC(=O)c2ccc([N+](=O)[O-])cc2)cc1`, the survivor count (T/C endpoint: mean survival time, dose: 400.0 mg/kg/injection, schedule: Q01DX009 (ip), vehicle: saline sonified) was 2 of 6.
On to `OC1(C2(O)c3ccccc3Oc3ccccc32)c2ccccc2Oc2ccccc21`, for which the survivor count (T/C endpoint: mean survival time, dose: 400.0 mg/kg/injection, schedule: Q01DX009 (ip), vehicle: saline) is 6 of 6.

(Values after PubChem BioAssay AID256 (DTP/NCI, 2004).)
